According to patent publication US20160169909A1, “C[…] DEH[…] INHIBITOR FOR TREATING CHRONIC IN[…]” (KYUNGPOOK NATIONAL UNIVERSITY INDUSTRY-ACADEMIC COOPERATION …, priority 2014, published 2016):
At least one compound was matched to its structure with a doubt left.

How the values were obtained:
Assay type in all cases: in vivo
[1] = system: mice where chronic inflammatory pain is induced by CFA injection; experiment: Mechanical allodynia, paw withdrawal threshold (PWT), von Frey filaments, in CFA-induced chronic inflammatory pain model; conditions: 10 mg/kg body weight, at 48 hours after CFA injection, compared with carrier control group
[2] = system: mice where chronic inflammatory pain is induced by CFA injection; experiment: Hindpaw edema (paw thickness) in CFA-induced chronic inflammatory pain model; conditions: peripheral administration, intraplantar injection, 10 mg/kg body weight, 10 μl, at 48 hours after CFA injection; FIG. 8A
[3] = system: mice where chronic inflammatory pain is induced by CFA injection; experiment: Thermal hyperalgesia, paw withdrawal latencies (PWL), Hargreaves' plantar test, in CFA-induced chronic inflammatory pain model; conditions: 10 mg/kg body weight, at 48 hours after CFA injection, compared with carrier control group

O=C(O)C(Cl)Cl [DCA, dichloroacetate]
mechanical allodynia (PWT) ([1]; central administration, intrathecal, 10 μl, FIG. 9B): significantly reduced
mechanical allodynia (PWT) ([1]; peripheral administration, intraplantar injection, FIG. 8C): significantly reduced
hindpaw edema increased by CFA injection [2]: significantly diminished
thermal hypersensitivities (PWL) ([3]; central administration, intrathecal, 10 μl, FIG. 9A): significantly reduced
thermal hypersensitivities (PWL) ([3]; peripheral administration, intraplantar injection, FIG. 8B): significantly reduced
